Data: patent US20220381657A1, “METHOD FOR PREPARING BIOLOGICAL MATERIAL HAVING EXCELLENT LIGHT-TRANSMITTING PROPERTY” (RIKEN, priority 2016, published 2022)

What was measured:
bovine coagulated blood = assay: Decoloring screening: heme eluted from bovine coagulated blood (OD420-OD700); conditions: decolorization; for 700 nm calibrated 420 nm Average: OD420 calibrated by OD700; for integrated value 500-700 nm Average: integrated absorbance 500-700 nm
Procedure: A high-throughput screening system for evaluating the decoloring ability of various compounds was constructed. The screening system involved adding an aqueous solution of each compound to bovine coagulated blood and then measuring the absorbance of heme collected in the supernatant.
Specifically, to bovine blood, an equal amount of 8% PFA solution was added, and reacted at 4° C. overnight. The mixed liquid was centrifuged at 1500×g for 5 minutes, and the supernatant containing PFA was discarded. Then, the same amount of PBS as the original volume of blood was added to prepare a coagulated blood sample. To 150 μL of 10 wt % aqueous solution of each compound, 50 μL of the coagulated blood sample was added, and reacted at 37° C. overnight. The reaction solution was centrifuged at 1500×g for 5 minutes, and then 100 μL of the supernatant was added to a plate so as to be subjected to absorbance measurement. A sample which is suspended in water instead of being dissolved in the water has a weak decoloring effect, but none the less has a high absorbance value. […]

[1] = Refractive index of high-concentration aqueous solution; type: physicochemical; conditions: Table 3
Source text: The refractive index of an aqueous solution is commonly known to increase in a solute concentration-dependent manner, and the refractive index of a reagent per unit weight of the reagent varies among individual reagents. Accordingly, two properties are required in order to prepare a high refractive index aqueous solution: (1) an extremely high water-solubility and (2) a […] which allows achieving a high refractive index in a low-concentration aqueous solution.

| Compound | 700 nm calibrated 420 nm Average (bovine coagulated blood) | integrated value 500-700 nm Average (bovine coagulated blood) | RI ([1]; chemical conc. 70 wt %) | RI ([1]; chemical conc. 75 wt %) |
| --- | --- | --- | --- | --- |
| Cc1cccc(N)n1 [#0370, 2-Amino-6-methylpyridine] | 2.66 | 2.57 | 1.4922 |  |
| C1CN=C2CCCN2C1 [#0587, 1,5- Diazabicyclo [4.3.0]-5-nonene] | 2.41 | 1.38 |  | 1.4836 |
